The list shows a part of the results, in another mix than the full data. Results filed as inconclusive are left out. The source made the active and inactive calls. Cut-off read from the data, not from the text of the source: active = CPE inhibition above about 20% (passing the limit was not always enough); inconclusive = no clear call, values can overlap the other calls; tested in BHK-21 cells.
Assay: protection of cells from dengue 2 killing – plate reader, single concentration, primary screen (AID 651640);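 note: 0% = median of neutral control wells and 100% = median of positive control wells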
Conditions: DENV2-infected cells, cytopathic effect rescue, at 9.99 µM, hits give high values

| Structure (SMILES) | CPE inhibition |
| --- | --- |
| CCCCCCCCc1ccc(O)cc1 | active: 45.4% |
